Experimental data from patent publication US20130273143A1.
These are yes or no findings as the source states them, for the method shown. Binding seen in cells or lysates may run through a third protein. Some entries that bind do so weakly or less than the wild type.

Chains of the proteins cited; added tags and fusions are not shown.
UniProt Q07813: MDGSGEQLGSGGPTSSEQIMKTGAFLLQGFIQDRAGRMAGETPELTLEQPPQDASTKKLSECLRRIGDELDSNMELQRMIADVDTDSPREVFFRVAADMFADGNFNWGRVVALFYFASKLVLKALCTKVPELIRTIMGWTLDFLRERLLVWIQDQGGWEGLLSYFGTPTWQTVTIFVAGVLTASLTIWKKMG

Tests used:
Bax (mouse) [1] = molecular target: Bax (mouse) (UniProt Q07813); test: co-immunoprecipitation from mouse heart homogenate (anti-Hsp20 or anti-Bax beads), immunoblot
Bax (mouse) [2] = molecular target: Bax (mouse) (UniProt Q07813); test: co-immunoprecipitation from mouse heart homogenate, both directions
Bax (mouse) [3] = molecular target: Bax (mouse) (UniProt Q07813); test: co-immunoprecipitation with anti-Hsp20 antibody, immunoblot with anti-Bax

Measured: binding

B1: Heat-Shock Protein Hsp20 (protein, mouse, UniProt Q5EBG6 1-162, looked up)
chain: MEIPVPVQPSWLRRASAPLPGFSAPGRLFDQRFGEGLLEAELASLCPAAIAPYYLRAPSVALPTAQVSTDSGYFSVLLDVKHFLPEEISVKVVDDHVEVHARHEERPDEHGFIAREFHRRYRLPPGVDPAAVTSALSPEGVLSIQATPASAQAQLPSPPAAK
binds: all assays above
